Reference: article PMC10163288
The other results are listed elsewhere or left out.

B1: il10ra_site1_sap_19_mot_HHH_b1_02591_000000249_0001_1_18_H_._HHH_b1_01157_0001_0000300022_0000001_0_0001 (protein)
chain: SSSSDNIERVVEFVKRALEALARAGDEEHVETLARVVLEHLERAGNEELFEELEEFVRELLSSSS
B2: il10ra_site1_sap_16_mot_802863e75c239dc72d0ffd0be86c571b_0001_1_000000009_0001_36_49_H_._HHH_b1_01385_0001_0000100003_0000001_1_0001 (protein)
chain: SSSSDEEVRQRLRALLWFARQISNREAARLAVREAAELAKEEGDEELLREIEELLEELENSSSSS
B3: il10ra_site1_normal_mot_HHH_b1_00999_000000080_0001_41_55_H_._HHH_b2_05235_0001_0000400024_0000001_0 (protein)
chain: SSSSSSDVEELLEEAQELRERGNPKEALEVLQRAVRHIFELGDKELLQELWELVRRIGSSSSSSS
B4: il10ra_site1_sap_16_mot_HHH_b2_02053_af2_000000006_0001_3_19_H_._HHH_b2_05522_0001_0000600036_0000001_0_0001 (protein)
chain: SSSSSEVEEEVEELIREVEEALRQGDSHKAAQLLIEAVEIAAENNNPELIRELAKLSREIFSSSS
B5: il10ra_site1_sap_25_mot_HHH_b1_06816_000000239_0001_1_19_H_._HHH_b1_08396_af2_0001_0000100002_0000002_0_0001 (protein)
chain: SSSSSSSDAEEEVERLLEEAEEDPRHALELLQEAIHLAVQASDPELLRAVWEVLKRLASSSSSSS
B6: il10ra_site1_sap_21_mot_HHH_b2_03425_000000200_0001_22_39_H_._HHH_b1_00826_0001_0000300018_0000001_0_0001 (protein)
chain: SSSSSSDDALELVQKAFHAALRGNPEEAEELLEEARKIAEELGNEKVLEMIRDLERALSSSSSSS
B7: il10ra_site1_sap_24_mot_HHH_b2_00984_000000042_0001_1_20_H_._a9737a16b0b5168389c1a5856fbd9e1f_0001_0001_0000400005_0000001_0_0001 (protein)
chain: SSSSSDVSERLYELSRRAVELDSEGNPEEARELLEEAEELARENNNQVLLANIEYLLELLSSSSS
B8: il10ra_site1_sap_17_mot_HHH_b1_06790_000000034_0001_1_15_H_._HHH_b2_02172_0001_0000300017_0000002_0_0001_af2pred_0001 (protein)
chain: SSSSSDRERVERAAKLARRALELGDPELAKTLLKKALELAKRAGDEELQEEIEELLEELGSSSSS
B9: il10ra_site1_sap_25_mot_2c1a291787c6f40772924d4e9068d803_0001_af2_000000187_0001_34_48_H_._HHH_b2_07308_af2_0001_0000400007_0000002_0_0001_af2pred_0001 (protein)
chain: SSSSSTREEVIKRVIELLREARRIEDPEEREEVLEEAHRLAEEGNNELLKFIVESLERKLSSSSS
B10: il10ra_site1_normal_mot_HHH_b2_05548_000000224_0001_41_54_H_._HHH_b2_03931_0001_0000300038_0000001_0 (protein)
chain: SSSSSDEEELERLVKELEEALKEGDERLVAKLTTRLFDLVAKTNDEEAQRVVREAVEFINSSSSS
B11: il10ra_site1_sap_20_mot_b26a303360aa2756ef5b79665ce52f45_0001_000000179_0001_1_11_H_._HHH_b2_05203_0001_0000200021_0000001_0_0001 (protein)
chain: SSSSDEEMQEVFELLREAAEAHHEGDKEEARKILERAEEIAEELGNILLLWQVEFLLRLLKSSSS
B12: il10ra_site1_sap_28_mot_HHH_b1_08477_000000091_0001_40_57_H_._HHH_b2_08053_0001_0000100005_0000001_0_0001 (protein)
chain: SSSSDDYEHAKKLIEEAAQLQHNGNPEEAERVLKELEEFLEERNDEVTLWAVRHLLKLIERSSSS
B13: il10ra_site1_sap_29_mot_HHH_b1_04100_af2_000000180_0001_1_19_H_._HHH_b1_08236_0001_0000200021_0000001_0_0001 (protein)
chain: SSSSDEERLEELLKELEELIEEGDRERALELMQEIIRLAFRLSDPEALRALWELAEKLKKSSSSS
B14: il10ra_site1_normal_mot_HHH_b2_03801_000000188_0001_20_36_H_._HHH_b2_00015_0002_0000300022_0000002_1_af2pred_0001 (protein)
chain: SSSSSDEAERAVRLLLRAAKQIENEEAVRLTLRDAKFTAEFLNDEELQELVREVAEELLSSSSSS
B15: il10ra_site1_normal_mot_HHH_b1_02881_000000046_0001_1_20_H_._HHH_b1_08287_0001_0000300053_0000001_0 (protein)
chain: SSSSSRFEERLEQLLEELEELIREGDSDEFYRVVREIIELAIEGNNEEFLRRLEELLQEALSSSS
B16: il10ra_site1_normal_mot_HHH_b1_08446_000000041_0001_1_19_H_._HHH_b2_02685_0001_0000300031_0000001_0 (protein)
chain: SSSSSSYREEVEELLEEAKHIEDVDERYRVLREAIELAVEGQDPEAERLVHEVLRELLRSSSSSS
B17: il10ra_site1_normal_mot_2c1a291787c6f40772924d4e9068d803_0001_af2_000000187_0001_34_48_H_._HHH_b2_03753_af2_0001_0000200004_0000001_0_af2pred_0001 (protein)
chain: SSSSDVKERVLHLLIRAFRLFEQGNEEEAKRLAEEAHELAEEEGDQRLAHAVRAFEELLRSSSSS
B18: il10ra_site1_sap_22_mot_HHH_b2_04057_000000065_0001_1_20_H_._HHH_b2_05849_0001_0000400020_0000001_1_0001 (protein)
chain: DELEEELRELVKRGDEEKVAELAAKVAKEKGSFSPEQLRALKLFIRALFRDNEEVAEHLARTVIS
B19: il10ra_site1_sap_19_mot_HHH_b2_03708_000000000_0001_1_18_H_._HHH_b1_04704_0001_0000300030_0000001_0_0001 (protein)
chain: SSSSTDELFEEVKRIIEEAIRLWREGNPEEARRLVEEALEEARENNNWALVWALEHLLRDLSSSS
B20: il10ra_site1_sap_13_mot_HHH_b1_05860_000000142_0001_1_19_H_._HHH_b2_05206_af2_0001_0000500019_0000001_0_0001_1 (protein)
chain: SSSSSAAERSVKRLLEAAKDIDDPEYVRLTLRFAKASARANNNEELEREIEEVERELKELLSSSS
B21: il10ra_site1_sap_24_mot_HHH_b2_08186_000000021_0001_43_56_H_._HHH_b1_07178_af2_0002_0000100005_0000001_0_0001 (protein)
chain: SSSSDDLTEEAWEILRKVLELRAQGDEEKARELLEEAEEIAEEAGNFILKFVIEQLQRQLKSSSS
B22: il10ra_site1_sap_23_mot_HHH_b2_00475_000000107_0001_44_57_H_._HHH_b1_05482_0001_0000100004_0000002_0_0001_af2pred_0001 (protein)
chain: DEIEELLRLLAQALIEAQKRNDEEALKLLLEALVLLHRALQKNDEELKEEANEFAKEVIKEAESS
B23: il10ra_site1_normal_mot_HHH_b1_05357_000000034_0001_23_39_H_._ems_3hC_618_0001_0001_0000600039_0000001_0_af2pred_0001 (protein)
chain: KREALDRATYLIIRAFALANDDDPEAREEAEELIKEAEELAKEANDPSVEFAVKLAKELIEEACS
B24: il10ra_site1_sap_26_mot_HHH_b1_03260_000000175_0001_42_57_H_._HHH_b1_03105_0001_0000200023_0000001_0_0001 (protein)
chain: SSSSSSDEEERLEELLEELHKAKDLEEIARIAKEAVRIAIQLNDHERFEELWKLAMRLFSSSSSS
B25: il10ra_site1_sap_12_mot_39ab2cb694c8b9c1dc7e65c0d672c93e_0001_000000010_0001_53_65_H_._HHH_b1_04946_0001_0000700037_0000001_0_0001 (protein)
chain: SSSSSEEIQEAMRLLEEASELDQNGNPEEAEKVLEEAEKIAEEGGNWSLRHALKHLLRVIRSSSS
B26: il10ra_site1_sap_23_mot_HHH_b1_07527_000000076_0001_1_15_H_._HHH_b2_01966_af2_0001_0000300022_0000001_0_0001 (protein)
chain: SSSSSDENREAYELVEEAFKIEDPEERERLLEEAQELAEEAGNFSLLFAIRHALEDARRGSSSSS
B27: il10ra_site1_sap_23_mot_9c3e5e2d2b9ffb70dc788f52fbfab6d5_0001_1_000000198_0001_1_14_H_._HHH_b1_05469_0001_0000200014_0000001_1_0001 (protein)
chain: SSSSDKEEIEELLKQLEEALREGDRELFTKILDRVMELIEKLGDIELAEELQELFREAVQKSSSS
B28: il10ra_site1_sap_25_mot_HHH_b1_02809_af2_000000277_0001_40_57_H_._HHH_b1_06904_0001_0000300018_0000002_0_0001 (protein)
chain: SSSEHDEFYRVVKEALEAAANKDREKAKELVEEAEEIAEELGSRVARWIVEFVEEAVKRNTKSSS
B29: il10ra_site1_normal_mot_HHH_b2_00273_000000062_0001_23_39_H_._HHH_b2_06886_0001_0000200026_0000001_0 (protein)
chain: SSSSDEEERELEKLLEEVEELAREGDEERFLRTVMRALQLAFKLGDQEVLQALWRLVKLLSSSSS
B30: il10ra_site1_normal_mot_HHH_b1_02997_000000220_0001_39_52_H_._HHH_b1_04034_0001_0000300020_0000001_0 (protein)
chain: SSSSDVEELYELSREAAKLFRDGNPEEAQRVLEEAEELAEELNNPNFLHNLRYLLRKIRESSSSS
B31: il10ra_site1_normal_mot_HHH_b1_05254_000000006_0001_1_19_H_._HHH_b2_01851_af2_0001_0000100002_0000002_0 (protein)
chain: SSSSDEAYRLAREVIERVVELFRRGNEEEAKQLLEEALEEVERLNNEAAFWALEHLLRVLNSSSS
B32: il10ra_site1_normal_mot_HHH_b2_03183_af2_000000055_0001_40_56_H_._HHH_b1_04703_0001_0000100001_0000003_0 (protein)
chain: SSSSSDEERELVEAALRLAKQVSPRTVRFLLIAAEKRAELTNDPELRRLAEEIEEILEELSSSSS
B33: il10ra_site1_normal_mot_HHH_b2_06857_af2_000000179_0001_42_54_H_._HHH_b2_07872_af2_0001_0000600039_0000002_0 (protein)
chain: SSSSSNEELERLFKLAREAAELHQKDPEEAEEVLREAQELAEELNNELTAIQLKFLLRRLSSSSS
B34: il10ra_site1_normal_mot_HHH_b2_00277_af2_000000172_0001_1_17_H_._HHH_b2_07191_0001_0000200011_0000001_0_af2pred_0001 (protein)
chain: SSSSDLEEKIEEVEEKVREALERGDDELAEELVRRLSKEVARARDPEASHLVTRLYSLVNSSSSS
B35: il10ra_site1_sap_26_mot_HHH_b2_03328_af2_000000127_0001_1_19_H_._HHH_b1_04763_0001_0000200024_0000001_0_0001 (protein)
chain: SSSSDETQEALRLVIEAFRLLARGDPEEAKRVLEEALELAEEAGTPLAEVIRNLLEAIEASSSSS
B36: il10ra_site1_normal_mot_HHH_b2_01397_000000078_0001_23_39_H_._HHH_b1_06054_0001_0000100001_0000002_0 (protein)
chain: SSSSDEEIRRYVKLTARFARFLLEEGDERAARRLVHAAADIARRNNDPELLRELEELLEELSSSS
B37: il10ra_site1_normal_mot_HHH_b2_02736_000000092_0001_22_38_H_._HHH_b1_00249_af2_0001_0000100002_0000001_0 (protein)
chain: SSSSDERAQEVYELLREAIELSRKDPEKAEEVAEEALELAEELNNEVLAFVIRFLLREIRGSSSS

target: il10ra, Q13651; experiment: yeast display titration

Apparent Kd, inactive:
B1 no binding seen
B2 no binding seen
B3 no binding seen
B4 no binding seen
B5 no binding seen
B6 no binding seen
B7 no binding seen
B8 no binding seen
B9 no binding seen
B10 no binding seen
B11 no binding seen
B12 no binding seen
B13 no binding seen
B14 no binding seen
B15 no binding seen
B16 no binding seen
B17 > 437 nM
B18 no binding seen
B19 no binding seen
B20 no binding seen
B21 no binding seen
B22 no binding seen
B23 no binding seen
B24 no binding seen
B25 no binding seen
B26 no binding seen
B27 no binding seen
B28 no binding seen
B29 no binding seen
B30 no binding seen
B31 no binding seen
B32 no binding seen
B33 no binding seen
B34 no binding seen
B35 no binding seen
B36 no binding seen
B37 no binding seen

A stretch from further up:
Apparent Kd, inactive:
B11 no binding seen
B12 no binding seen
